The list shows a part of the results.
Tests used:
Experiment in all cases: glycan array binding signal (z-score within array); higher = stronger binding
Settings in all cases: glycan notation: IUPAC condensed, linker removed
[1] = target: Fuc(a1-2)[Gal(a1-4)]Gal(b1-4)GlcNAc
In short: (§1)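 Glycan array data came from 3228 arrays in the Consortium for Functional Glycomics database, and only arrays with an available protein sequence were kept. Glycan names were put into IUPAC-condensed notation, and columns mapping to the same glycan were averaged. The binding signal is a within-array Z-score, averaged across arrays of one protein sequence run at different concentrations or buffers and across linkers. A negative Z-score can be read as non-binding.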

[2] = target: Fuc(a1-2)[GalNAc(a1-3)]Gal
In short: as §1

[3] = target: Fuc(a1-2)[GalNAc(a1-3)]Gal(b1-3)GalNAc(a1-3)[Fuc(a1-2)]Gal(b1-4)GlcNAc
In short: as §1

[4] = target: Fuc(a1-2)[GalNAc(a1-3)]Gal(b1-3)GalNAc(b1-3)Gal(a1-4)Gal(b1-4)Glc
In short: as §1

[5] = target: Fuc(a1-2)[GalNAc(a1-3)]Gal(b1-3)GlcNAc
In short: as §1

[6] = target: Fuc(a1-2)[GalNAc(a1-3)]Gal(b1-3)GlcNAc(b1-2)Man(a1-3)[Fuc(a1-2)[GalNAc(a1-3)]Gal(b1-3)GlcNAc(b1-2)Man(a1-6)]Man(b1-4)GlcNAc(b1-4)GlcNAc
In short: as §1

[7] = target: Fuc(a1-2)[GalNAc(a1-3)]Gal(b1-3)GlcNAc(b1-2)Man(a1-3)[Fuc(a1-2)[GalNAc(a1-3)]Gal(b1-3)GlcNAc(b1-2)Man(a1-6)]Man(b1-4)GlcNAc(b1-4)[Fuc(a1-6)]GlcNAc
In short: as §1

[8] = target: Fuc(a1-2)[GalNAc(a1-3)]Gal(b1-3)GlcNAc(b1-3)GalNAc
In short: as §1

[9] = target: Fuc(a1-2)[GalNAc(a1-3)]Gal(b1-3)GlcNAc(b1-6)GalNAc
In short: as §1

[10] = target: Fuc(a1-2)[GalNAc(a1-3)]Gal(b1-4)Glc
In short: as §1

[11] = target: Fuc(a1-2)[GalNAc(a1-3)]Gal(b1-4)GlcNAc
In short: as §1

[12] = target: Fuc(a1-2)[GalNAc(a1-3)]Gal(b1-4)GlcNAc(b1-2)Man
In short: as §1

[13] = target: Fuc(a1-2)[GalNAc(a1-3)]Gal(b1-4)GlcNAc(b1-2)Man(a1-3)[Fuc(a1-2)[GalNAc(a1-3)]Gal(b1-4)GlcNAc(b1-2)Man(a1-6)]Man(b1-4)GlcNAc(b1-4)GlcNAc
In short: as §1

[14] = target: Fuc(a1-2)[GalNAc(a1-3)]Gal(b1-4)GlcNAc(b1-2)Man(a1-3)[Fuc(a1-2)[GalNAc(a1-3)]Gal(b1-4)GlcNAc(b1-2)Man(a1-6)]Man(b1-4)GlcNAc(b1-4)[Fuc(a1-6)]GlcNAc
In short: as §1

[15] = target: Fuc(a1-2)[GalNAc(a1-3)]Gal(b1-4)GlcNAc(b1-3)Gal(b1-4)GlcNAc
In short: as §1

[16] = target: Fuc(a1-2)[GalNAc(a1-3)]Gal(b1-4)GlcNAc(b1-3)Gal(b1-4)GlcNAc(b1-3)Gal(b1-4)GlcNAc
In short: as §1

[17] = target: Fuc(a1-2)[GalNAc(a1-3)]Gal(b1-4)GlcNAc(b1-3)GalNAc
In short: as §1

[18] = target: Fuc(a1-2)[GalNAc(a1-3)]Gal(b1-4)GlcNAc(b1-3)[Fuc(a1-2)[GalNAc(a1-3)]Gal(b1-4)GlcNAc(b1-6)]GalNAc
In short: as §1

[19] = target: Fuc(a1-2)[GalNAc(a1-3)]Gal(b1-4)GlcNAc(b1-6)GalNAc
In short: as §1

[20] = target: Fuc(a1-2)[GalNAc(a1-3)]Gal(b1-4)[Fuc(a1-3)]GlcNAc
In short: as §1

[21] = target: Fuc(a1-2)[GalNAc(a1-3)]Gal(b1-4)[Fuc(a1-3)]GlcNAc(b1-3)GalNAc
In short: as §1

[22] = target: Fuc(a1-2)[GalNAc(a1-4)]Gal(b1-4)GlcNAc
In short: as §1

[23] = target: Fuc(a1-2)[GalNAc(b1-3)]Gal
In short: as §1

Fuc(a1-3)GlcNAc = target: Fuc(a1-3)GlcNAc
In short: as §1

[24] = target: Fuc(a1-3)[Gal(b1-4)]Glc6S
In short: as §1

[25] = target: Fuc(a1-3)[Gal(b1-4)]GlcNAc
In short: as §1

[26] = target: Fuc(a1-3)[Gal(b1-4)]GlcNAc(b1-2)Man
In short: as §1

[27] = target: Fuc(a1-3)[Gal(b1-4)]GlcNAc(b1-2)Man(a1-3)[Fuc(a1-3)[Gal(b1-4)]GlcNAc(b1-2)Man(a1-6)]Man(b1-4)GlcNAc(b1-4)GlcNAc
In short: as §1

[28] = target: Fuc(a1-3)[Gal(b1-4)]GlcNAc(b1-2)Man(a1-3)[Fuc(a1-3)[Gal(b1-4)]GlcNAc(b1-2)Man(a1-6)]Man(b1-4)GlcNAc(b1-4)[Fuc(a1-6)]GlcNAc
In short: as §1

[29] = target: Fuc(a1-3)[Gal(b1-4)]GlcNAc(b1-3)Gal(b1-3)[Fuc(a1-4)]GlcNAc
In short: as §1

[30] = target: Fuc(a1-3)[Gal(b1-4)]GlcNAc(b1-3)Gal(b1-4)[Fuc(a1-3)]GlcNAc
In short: as §1

[31] = target: Fuc(a1-3)[Gal(b1-4)]GlcNAc(b1-3)Gal(b1-4)[Fuc(a1-3)]GlcNAc(b1-3)Gal(b1-4)[Fuc(a1-3)]GlcNAc
In short: as §1

[32] = target: Fuc(a1-3)[Gal(b1-4)]GlcNAc(b1-3)GalNAc
In short: as §1

[33] = target: Fuc(a1-3)[Gal(b1-4)]GlcNAc(b1-6)GalNAc
In short: as §1

[34] = target: Fuc(a1-3)[Gal(b1-4)]GlcNAc(b1-6)[Gal(b1-3)GlcNAc(b1-3)]Gal(b1-4)Glc
In short: as §1

[35] = target: Fuc(a1-3)[Gal(b1-4)]GlcNAc6S
In short: as §1

[36] = target: Fuc(a1-3)[Gal3S(b1-4)]Glc
In short: as §1

[37] = target: Fuc(a1-3)[Gal3S(b1-4)]GlcNAc
In short: as §1

B1: OS9 (Arabidopsis thaliana) (protein)
chain: MRGSHHHHHHGMASMTGGQQMGRDLYDDDDKSRLQIFPAHLVGTFSRNNREPKYKIEFLPEDSPFHPGDNLESMVMLDKHGNRFLCYLPKEEKATSGWTSSQQNISTVMMETQQLVKLKTPDELLQPLSEKCLFRQEGWWSYEFCHQKYVRQLHVEDENKIVQEFFLGTFDPEATAAFNQTVSDASTDASQRYHSHVYTNGTTCDLTGSPREVEVRFVCAETRAMVTSITELSTCKYALTVQCPTLCKHPLFQLEKPVSHTIHCNAIPVEEDATRNKEEQAVDESPKMIADS
- glycan array binding signal (z-score) [1]: 0.342
- glycan array binding signal (z-score) [2]: 0.599
- glycan array binding signal (z-score) [3]: -0.644
- glycan array binding signal (z-score) [4]: 0.659
- glycan array binding signal (z-score) [5]: -0.221
- glycan array binding signal (z-score) [6]: 0.907
- glycan array binding signal (z-score) [7]: 0.007
- glycan array binding signal (z-score) [8]: 0.937
- glycan array binding signal (z-score) [9]: -0.832
- glycan array binding signal (z-score) [10]: 0.068
- glycan array binding signal (z-score) [11]: -0.828
- glycan array binding signal (z-score) [12]: -0.272
- glycan array binding signal (z-score) [13]: -0.302
- glycan array binding signal (z-score) [14]: 0.082
- glycan array binding signal (z-score) [15]: -0.425
- glycan array binding signal (z-score) [16]: 0.087
- glycan array binding signal (z-score) [17]: -1.24
- glycan array binding signal (z-score) [18]: 0.139
- glycan array binding signal (z-score) [19]: -0.027
- glycan array binding signal (z-score) [20]: 1.62
- glycan array binding signal (z-score) [21]: 0.124
- glycan array binding signal (z-score) [22]: -0.01
- glycan array binding signal (z-score) [23]: -0.156
- glycan array binding signal (z-score) (Fuc(a1-3)GlcNAc): 0.816
- glycan array binding signal (z-score) [24]: -0.704
- glycan array binding signal (z-score) [25]: -0.439
- glycan array binding signal (z-score) [26]: 1.56
- glycan array binding signal (z-score) [27]: 0.373
- glycan array binding signal (z-score) [28]: -1.08
- glycan array binding signal (z-score) [29]: -0.792
- glycan array binding signal (z-score) [30]: 0.209
- glycan array binding signal (z-score) [31]: -0.881
- glycan array binding signal (z-score) [32]: 0.383
- glycan array binding signal (z-score) [33]: -1.02
- glycan array binding signal (z-score) [34]: 0.901
- glycan array binding signal (z-score) [35]: 3.45
- glycan array binding signal (z-score) [36]: -0.948
- glycan array binding signal (z-score) [37]: 1.51

Source: the supplement of paper PMC8728848
